Results published in PubChem BioAssay AID758 (NMMLSC, 2007).
Hit rate of the full screen: of about 190,000 compounds, about 110 (0.058%) were called active. Inconclusive results, whose numbers are uncertain, are shown with a selection of clear calls.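 The calls were made as follows: active = fluorescent GTP binding to Rab7 beads changed by at least 20 points from the 100% baseline, either direction, mostly lower; inconclusive = compound itself probably fluorescent, or too few beads counted; inactive = the rest.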

tested on: Rab7 GTPase wild type (dog), Bodipy-FL-GTP binding; experiment: modulators of GTP binding to Rab7, primary screen, biochemical, wildtype, multiplex bead flow cytometry (AID 758); details: GST-Rab7 beads, fluorescent GTP binding, at 10 µM, actives lie on both sides, untreated = 100%, excess cold GTP = 0%;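 also: median green fluorescence of bound Bodipy-FL-GTP per Rab7 bead population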

Row | SMILES | GTP binding activity (percent of control)
1 | CN(c1ccc(C(=O)O)cc1)S(=O)(=O)c1ccc(Cl)cc1 | inconclusive: 99%
2 | CCCNS(=O)(=O)c1ccc(CCC(=O)N2CCCC2)cc1 | inactive: 104%
3 | Nc1nc(SCC(=O)Nc2cccnc2Cl)n[nH]1 | inconclusive: 98%
4 | Cc1ccc(CSc2ncccc2C(=O)O)cc1 | inconclusive: 120%
5 | CC(C)C(NC(=O)c1ccccc1)C(=O)NCCc1ccccc1 (configuration not stated) | inactive: 96%
6 | O=C1N=C2SCCN2/C1=C\c1c(Cl)cccc1Cl | inconclusive: 95%
7 | COc1ccc(NC(=O)CN2CCc3ccccc3C2)cc1S(=O)(=O)N1CCOCC1 | inconclusive: 102%
8 | Cc1nn(-c2ccccc2)c(C)c1C(=O)OCC(=O)NCc1ccco1 | inconclusive: 96%
9 | O=C(NCC1CCCO1)/C(=C\c1ccco1)NC(=O)c1ccc(Cl)cc1 (configuration not stated) | inconclusive: 95%
10 | Clc1ccc(CSc2nnc(-c3ccc4c(c3)OCO4)o2)cc1 | inconclusive: 98%
11 | CC1(C)CC(=O)C=C(N=CC2=C(O)CC(C)(C)CC2=O)C1 | inconclusive: 92%
12 | COc1ccc(-n2nnnc2SCC(=O)NC(=O)Nc2ccc3c(c2)OCCO3)cc1 | inconclusive: 92%
13 | Cc1ccc(CSc2nc3c(c(N(C)C)n2)CCCC3)cc1 | inconclusive: 94%
14 | Cc1cc(Cl)c(S(=O)(=O)N2CCN(c3cccc(C)c3C)CC2)cc1OCC(N)=O | inconclusive: 101%
15 | CN(C)CCNC(=S)Nc1ccc(Br)cc1 | inconclusive: 103%
16 | Cc1ccc(/C=N\NC(=O)c2ccc(Cn3cc(Br)c([N+](=O)[O-])n3)o2)o1 | inconclusive: 96%
17 | COc1ccc(-c2nnc3sc(COc4ccc(C)cc4)nn23)cc1 | inconclusive: 91%
18 | Cc1nc2cc(C(=O)NCc3ccc4c(c3)OCO4)ccc2n1-c1ccc(Br)cc1 | inconclusive: 85%
19 | Nc1cc(Cl)ccc1N1CCCCCC1 | inactive: 98%
20 | CCCc1n(CC)c2ccccc2[n+]1CC(O)COC1CCCCC1 (configuration not stated) | inactive: 99%
21 | O=C(N/N=C/c1sc(N2CCCCC2)nc1-c1cccs1)C1CC1 | inconclusive: 96%
22 | O=C(c1ccc(COc2ccc(F)cc2)o1)n1cccn1 | inconclusive: 95%
23 | CN(C)c1nnc(-c2ccc(Cl)cc2)o1 | inconclusive: 97%

Row | SMILES | GTP binding activity (percent of control)
24 | Fc1ccccc1Cc1noc(CN2CCN(C/C=C/c3ccccc3)CC2)n1 | inactive: 96%
25 | COc1ccc(NC(=O)c2cccc(N3C(=O)NC4CC3(C)Oc3ccccc34)c2)cc1 (configuration not stated) | inconclusive: 101%
26 | O=[N+]([O-])c1cccc(C2NCC(c3ccccc3Cl)c3c2[nH]c2ccccc32)c1 (configuration not stated) | inconclusive: 102%
27 | COc1ccc(NC(=O)c2ccco2)cc1NC(=O)c1cccs1 | inconclusive: 101%
28 | CCc1ccc(C2=NN(CCC(=O)NCc3cccs3)C(=O)CC2)cc1 | inactive: 105%
29 | O=C(N/N=C/c1cn(-c2cccs2)nc1-c1ccccc1)c1ccccc1Cl | inconclusive: 98%
30 | CCOc1cc(/C=C2\SC(=O)N=C2N)ccc1O | inactive: 90%
31 | COc1cc(N2CCCC2)c(OC)cc1/C=c1/sc2nc3ccccc3n2c1=O | inconclusive: 433%
32 | Cc1cc(-n2c(SCc3ccccc3F)nc3n[nH]c(C)c3c2=N)ccc1Cl | inconclusive: 94%
33 | CCCCN1C(=O)/C(=C/C=C2\N(C)c3ccccc3C2(C)C)SC1=S | inconclusive: 187%
34 | COc1cccc(NC(=O)c2oc3ccc(S(=O)(=O)N4CCOCC4)cc3c2C)c1 | inconclusive: 100%
35 | CC(C(=O)N1CCCCC1)N(C)CC(=O)Nc1ccc(Cl)cc1 (configuration not stated) | inactive: 98%
36 | Cc1ccc2c(c1)cc(C)c1nnc(SCC(=O)NCc3ccco3)n12 | inconclusive: 92%
37 | CCCCn1c(SCC(=O)c2ccccc2)nc2c1c(=O)[nH]c(=O)n2C | active: 21%
38 | COc1ccc(/C=N/NC(=O)CCCC(=O)NC2CCCCC2)cc1 | inconclusive: 100%
39 | O=C(O)CCN1C(=O)/C(=C\c2ccc(-c3nc4ccccc4s3)o2)SC1=S | active: 74%
40 | CCOP(=O)(OCC)c1nc(-c2ccc(Cl)cc2Cl)oc1N1CCOCC1 | inactive: 99%
41 | CC1CCCCN1CCn1c(=S)[nH]c2cc3c(cc2c1=O)OCO3 (configuration not stated) | inconclusive: 96%
42 | O=C1Oc2ccccc2C(=O)/C1=C/N1CCN(c2ccccc2F)CC1 | inconclusive: 95%
43 | Cc1cc(C(=O)NC(=S)Nc2cccc(C(=O)O)c2C)ccc1[N+](=O)[O-] | inconclusive: 115%
44 | CCOC(=O)C(CC)Sc1ccc2nnc(CCNS(=O)(=O)c3ccccc3)n2n1 (configuration not stated) | inconclusive: 103%
45 | CCOc1ccc(Cc2n[nH]c(=S)n2Cc2ccccc2)cc1 | inactive: 101%
46 | O=c1c2ccccc2nc2c3ccccc3c(NCc3ccco3)nn12 | inactive: 88%

Row | SMILES | GTP binding activity (percent of control)
47 | O=C(NCC(=O)N1CC(O)CC1C(=O)N1CCCC1C(=O)OCc1ccccc1)OCc1ccccc1 (configuration not stated) | inactive: 98%
48 | O=C(COC(=O)/C=C/c1cccc([N+](=O)[O-])c1)NCc1ccc2c(c1)OCO2 | inactive: 98%
49 | O=C(Nc1ccccc1C(F)(F)F)N1CCN(c2ccccn2)CC1 | inactive: 99%
50 | Cn1nccc1C(=O)N1CCc2ccccc21 | inconclusive: 101%
51 | COc1ccc(N2CCC(CNC(=S)Nc3cccc(OC)c3)C2)cc1 (configuration not stated) | inconclusive: 101%
52 | CC(C)CC(=O)Nc1nnn(C)n1 | inconclusive: 102%
53 | CCOC(=O)/C(=C\Nc1ccccc1C(F)(F)F)Sc1ncc(C(F)(F)F)cc1Cl | inconclusive: 100%
54 | O=C(NN1S(=O)(=O)c2ccccc2S1(=O)=O)c1ccc(Br)cc1 | inconclusive: 94%
55 | CC(C)C(NC(=O)CSCc1ccc([N+](=O)[O-])cc1)C(C)C | inactive: 97%
56 | c1ccc(-c2nc(NCc3cccnc3)c3oc4ccccc4c3n2)cc1 | inconclusive: 94%
57 | CC1(C)Cc2c(sc3nc(SCC(=O)NCc4ccco4)n(-c4ccccc4)c(=O)c23)CS1 | inconclusive: 110%
58 | Nc1c(C(=O)C2CC2)sc2nc(-c3cccs3)cc(C(F)(F)F)c12 | inactive: 116%
59 | CSCC[C@H](NC(=O)OC(C)(C)C)C(=O)N/N=C/c1cc2ccc(C)cc2nc1Cl | inconclusive: 97%
60 | O=C(O)c1cc(C(=O)O)cc(-c2ccc(/C=c3/sc4nc5ccccc5n4c3=O)o2)c1 | inactive: 92%
61 | O=c1[nH]c(N/N=C\c2ccc3c(c2)OCO3)nc2ccccc12 | inactive: 85%
62 | CCOC(=O)CN1C(=O)CN(c2ccc(C)c(C)c2)C1=O | inconclusive: 97%
63 | COc1ccc2c(c1)c(=O)oc1c(C)c(OCc3cc(C(=O)O)oc3C)ccc12 | inconclusive: 90%
64 | O=C(O)c1ccc2cc[nH]c2c1 | inconclusive: 93%
65 | CC[n+]1c(C)sc2c3ccsc3ccc21 | inconclusive: 88%
66 | Cc1ccc(C)c(S(=O)(=O)NCc2ccc(C(=O)NCc3ccccn3)cc2)c1 | inconclusive: 101%
67 | Cc1nnsc1S(=O)(=O)Cc1ccccc1Cl | inconclusive: 103%
68 | COC(=O)c1ccc(CO/N=C/c2ccc(OC)cc2)o1 | inactive: 104%
69 | CC(C)C1N(C(=O)CN2CCCCC2)CCN1S(=O)(=O)c1ccccc1 (configuration not stated) | inactive: 93%

Of the compounds above, 5 contain a nitro group on carbon.
Row | SMILES | GTP binding activity (percent of control)
16 | Cc1ccc(/C=N\NC(=O)c2ccc(Cn3cc(Br)c([N+](=O)[O-])n3)o2)o1 | inconclusive: 96%
26 | O=[N+]([O-])c1cccc(C2NCC(c3ccccc3Cl)c3c2[nH]c2ccccc32)c1 (configuration not stated) | inconclusive: 102%
43 | Cc1cc(C(=O)NC(=S)Nc2cccc(C(=O)O)c2C)ccc1[N+](=O)[O-] | inconclusive: 115%
48 | O=C(COC(=O)/C=C/c1cccc([N+](=O)[O-])c1)NCc1ccc2c(c1)OCO2 | inactive: 98%
55 | CC(C)C(NC(=O)CSCc1ccc([N+](=O)[O-])cc1)C(C)C | inactive: 97%

More entries

Row | SMILES | GTP binding activity (percent of control)
70 | CCn1c(CNC(=O)Cc2ccc(OC)cc2)nnc1SCC(=O)Nc1ccc(C(=O)O)cc1 | inactive: 102%
71 | CN(C)S(=O)(=O)c1ccc(Cl)c(NC(=O)c2ccncc2)c1 | inactive: 99%
72 | O=C1c2cccc3cccc(c23)C(=O)N1CCCCCc1n[nH]c(=S)o1 | inconclusive: 94%
73 | COc1ccc(S(=O)(=O)N(CC(=O)N/N=C/c2cccs2)c2cc(C)cc(C)c2)cc1OC | inactive: 98%
74 | CCN(CC)c1ccc(/C=C(\C#N)C(=O)c2ccc(Br)cc2)cc1 | inconclusive: 156%
75 | CCOC(=O)c1c(C)[nH]c(C(=O)COC(=O)/C=C/c2ccc(OCC#N)c(OC)c2)c1C | inactive: 105%
76 | CC1CCC2(CC1)NC(=O)N(Cc1cccc(C(F)(F)F)c1)C2=O (configuration not stated) | inconclusive: 93%
77 | COc1cccc2c(=O)n(CC(=O)Nc3ccccc3F)ccc12 | inconclusive: 102%
78 | O=C(CSc1nnc2ccccn12)Nc1ccccc1C(=O)O | inconclusive: 127%
79 | C/C(CCc1ccc2c(c1)OCO2)=N\N=C1\NC(=O)CC(C(=O)Nc2ccccc2F)S1 (configuration not stated) | inactive: 97%
80 | CC(=O)NNC(=O)CCn1nnc(-c2ccc(Cl)cc2)n1 | inactive: 104%
81 | Cc1c(NC(=O)c2ncn[nH]2)cccc1-c1nc2ccccc2s1 | inactive: 103%
82 | Cc1cccc(C(C)C)c1NC(=O)CSc1nncn1C | inconclusive: 108%
83 | O=C(C1CCCN(Cc2nc(-c3cccs3)no2)C1)N1CCOCC1 (configuration not stated) | inactive: 96%
84 | O=C(Cn1cnc2cc([N+](=O)[O-])ccc2c1=O)NC1CCS(=O)(=O)C1 (configuration not stated) | inconclusive: 100%
85 | COC(=O)C1C(O)=C(C=Nc2ccc(N)cc2)C(=O)CC1(C)C (configuration not stated) | inactive: 103%
86 | CC(=O)c1cccc(NC(=O)Cn2nc(-c3ccc(Cl)cc3)ccc2=O)c1 | inactive: 101%
87 | COc1ccc(C(=O)CN2C(=O)c3ccccc3C2=O)c(OC)c1C | inconclusive: 92%
88 | CS(=O)(=O)N(CC(=O)NCc1ccncc1)c1cc(Cl)ccc1Cl | inactive: 102%
89 | COc1cc2[nH]c(=O)n(CCC(=O)NCCCN3CCN(c4ccccc4F)CC3)c(=O)c2cc1OC | inconclusive: 102%
90 | COc1cccc(CC2(CO)CCCN(CC3=Cc4cc(Cl)ccc4OC3)C2)c1 (configuration not stated) | inactive: 103%
91 | Cc1ccc(NC(=O)c2ccco2)c(NC(=O)c2cccs2)c1 | inconclusive: 106%
92 | COc1ccc(C(=O)N2CCOC2CNC(=O)C(=O)NCc2ccc(Cl)cc2)cc1 (configuration not stated) | inconclusive: 104%
